Laboratory results: patent publication US20260263433A1, “TETRAZOLIUM AND FORMAZAN COMPOUNDS AND METHODS OF MAKING AND USING THE SAME” (ARIZONA BOARD OF REGENTS ON BEHALF OF THE UNIVERSITY OF …, priority 2022, published 2026)
At least one compound was matched to its structure with a doubt left.

Tested on: A2780 ovarian cancer cells
Experiment: Effect of iron supplementation on toxicity, LIVE/DEAD stain, flow cytometry
Assay type: cell-based, human
Details: compounds 40 μM with or without ferric ammonium citrate 50 μM or holo-transferrin 50 μM, 48 h
Method: FIGS. 6A-6B depict the effects of iron supplementation on toxicity in A2780 ovarian cancer cells. The percentage of dead cells was determined using the LIVE/DEAD fixable stain as measured by flow cytometry. FIG. 6A depicts the quantification of dead cells after treating in the presence of test compounds (40 μM) with or without ferric ammonium citrate (FAC, 50 μM) for 48 h. FIG. 6B depicts the quantification of dead cells after treating in the presence of test compounds (40 μM) with or without holo-transferrin (holo-TF, 50 μM) for 48 h. Experiments were conducted in triplicate and the values shown are averages ±standard deviation. **p<0.01, ***p<0.001, ****p<0.0001.
The biological activity of the tetrazolium and formazan compounds was investigated in A2780 cells, in which they presented the highest antiproliferative activity. In particular, experiments were performed to confirm that the antiproliferative activity of these compounds is associated with the availability of intracellular iron.

`O=C(O)c1ccc(-n2nc(-c3ccccc3O)nc2-c2ccccc2O)cc1` [DFX, deferasirox, reference compound] was tested, and the “Effect of iron supplementation on cell death” value was “could be rescued by iron supplementation”.
